Literature values in patent US4677069A, “Clam derived proteinases” (priority 1984, dated 1987).
At least one compound was matched to its structure with a doubt left.

Tests used:
mammalian cathepsin B = conditions: Table 11; sources Barrett, 1977b; Barrett and Kirschke, 1981; cited from earlier work
mammalian cathepsin D = conditions: Table 11; sources Barrett, 1977c; Takahashi and Tang, 1981; cited from earlier work

[Cu+2] [Cu++]
Inhibitors: Cathepsin B (+/-) (mammalian cathepsin B): + | Inhibitors: Cathepsin D (+/-) (mammalian cathepsin D): -
